From patent US10202443
Numbering of substitutions follows the chain as printed. Results are given in words; binding and its absence hold for the method and conditions named. Binding seen in cells or lysates may run through a third protein. Some results given as binding are weak or reduced against the parent protein; the word gives no strength. Blank lines part the entries; values can stand above or below the binder they belong to.

By UniProt entry, the sequences of proteins in these tests, tags left out.
UniProt Q13148: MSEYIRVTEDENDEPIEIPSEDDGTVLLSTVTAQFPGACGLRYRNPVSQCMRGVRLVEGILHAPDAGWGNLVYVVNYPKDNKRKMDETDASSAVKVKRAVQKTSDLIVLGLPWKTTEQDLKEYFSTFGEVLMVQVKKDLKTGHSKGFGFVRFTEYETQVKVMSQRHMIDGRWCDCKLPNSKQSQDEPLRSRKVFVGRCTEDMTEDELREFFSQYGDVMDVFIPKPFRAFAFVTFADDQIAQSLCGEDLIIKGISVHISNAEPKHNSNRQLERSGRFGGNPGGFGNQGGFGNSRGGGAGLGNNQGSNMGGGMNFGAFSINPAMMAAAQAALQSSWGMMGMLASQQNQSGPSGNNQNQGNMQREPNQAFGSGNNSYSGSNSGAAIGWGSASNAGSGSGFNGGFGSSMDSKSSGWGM

How the values were obtained:
[1] = target: cellular TDP-43 of HEK293 cells (UniProt Q13148); assay: co-immunoprecipitation, Hek293 cells transfected with the scFv plasmid
[2] = target: cellular TDP-43 of HEK293 cells (UniProt Q13148); assay: co-immunoprecipitation from HEK293 lysates with polyclonal anti-TDP-43, myc detection

binding [1]: binds | binding [2]: binds
B1: E6_VH1Vκ9 scFv antibody (scFv)
scFv: LQESGGGLVQPGGSMKLSCVASGFTSSNYWLNWVRQSPERGLEWVAEIRLKSNNYATNYAESVKGRFTISRDDSKSSVYLQVNNLRAEDTGIYYCTRSTARATPYYFDYWGQGTTVTVSSGGGGSGGGGSGGGGSDIELTQSPSSLAVSAGEKVTMSCKSSQSLLNSRARKNFLTWYQQKPGQSPKLLIYWASTRESGVPDRFTGSGSGTDFTLTISSVQAEDLAVYYCKQSYNLYTFGGGTKLEEQKLISEEDLN

binding [2]: binds
B2: E6_VH7Vκ9 scFv antibody (scFv)
scFv: B1 scFv with E3Q
